Results as given in the supplement of paper PMC6289059.
The list shows a part of the results. Single values are uncertain, as repeats are few or missing.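 Hepatocyte-like cells derived from human stem cells with CRISPR-disrupted DGUOK model liver mtDNA depletion syndrome. Each well's ATP signal was scored against other wells on the same plate, and drugs scoring 3 or above were primary hits.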 Residues, ends and D or L forms follow the SMILES beside them.

tested on: DGUOK Δ14/Δ5 iPSC-derived hepatocyte-like cells (SV20); assay: ATP level (CellTiter-Glo luminescence) Z score relative to plate distribution, under 2-DG glycolysis block; higher = more cellular ATP (rescue of mitochondrial ATP production); conditions: 5 µM; treatment time: day 15 to day 20 of differentiation (5 days); 2-deoxy-D-glucose: 20 mM for 24 h before assay

| Compound | ATP level |
| --- | --- |
| CC(=O)CCCCn1c(=O)c2c(ncn2C)n(C)c1=O | inactive: 2.79 |
| CN(C/C=C/c1ccccc1)Cc1cccc2ccccc12 | inactive: 0.332 |
| O=C(CO)C(O)C(O)C(O)CO (stereo not drawn) | inactive: -1.67 |
| C[C@@H]1CC[C@@]2(OC1)O[C@H]1C[C@H]3[C@@H]4CC[C@H]5C[C@@H](O)CC[C@]5(C)[C@H]4CC(=O)[C@]3(C)[C@H]1[C@@H]2C | inactive: -0.3 |
| NCCNCCNCCN | inactive: 1.43 |
| O=C(CCc1ccc(O)cc1)c1c(O)cc(O)cc1O[C@@H]1OC(CO)[C@@H](O)[C@@H](O)C1O (stereo partly drawn) | inactive: 1.96 |
| COc1c(C)c2c(c(O)c1C/C=C(\C)CCC(=O)O)C(=O)OC2 | inactive: -0.917 |
| O=C(Oc1ccccc1C(=O)O)c1ccccc1O | inactive: -0.736 |
| O=C(O)c1ccc(S(=O)(=O)N(Cl)Cl)cc1 | inactive: 1.31 |
| CCCCCNC(=N)N/N=C/c1c[nH]c2ccc(OC)cc12 | inactive: -2.2 |
| CCN1CCCC(OC(=O)C(c2ccccc2)c2ccccc2)C1 (stereo not drawn) | inactive: 0.523 |
| Nc1ccc(C(=O)O)cc1 | inactive: 0.165 |
| CO[C@H]1C[C@H](O[C@@H]2/C(C)=C\C[C@@H]3C[C@@H](C[C@]4(C=C[C@H](C)[C@@H](C(C)C)O4)O3)OC(=O)[C@@H]3C=C(C)[C@@H](O)[C@H]4OC/C(=C/C=C\[C@@H]2C)[C@]43O)O[C@@H](C)[C@H]1O[C@H]1C[C@@H](OC)[C@H](NC(C)=O)[C@H](C)O1 | inactive: -9.6 |
| NCCCC(O)(P(=O)(O)O)P(=O)(O)O | inactive: -1.51 |
| Nc1ccc(S(=O)(=O)Nc2cnc3ccccc3n2)cc1 | inactive: -14 |
| O=C(O)CN(CC(=O)O)Cc1cc2c(cc1O)Oc1cc(O)c(CN(CC(=O)O)CC(=O)O)cc1C21OC(=O)c2ccccc21 | inactive: -1.03 |
| [O-][n+]1cccc(CO)c1 | inactive: 0.859 |
| COc1ccc(C[C@H](N)C(=O)N[C@H]2[C@@H](O)[C@H](n3cnc4c(N(C)C)ncnc43)O[C@@H]2CO)cc1 | inactive: -0.197 |
| Cc1ccnc(NS(=O)(=O)c2ccc(N)cc2)n1 | inactive: 0.791 |
| O=c1ccn([C@@H]2O[C@H](CO)[C@@H](O)[C@H]2O)c(=O)[nH]1 | inactive: -0.142 |
| C[C@H](Cn1cnc2c(N)ncnc21)OCP(=O)(O)O | inactive: -5.74 |
| CCCCNc1cc(C(=O)O)cc(S(N)(=O)=O)c1Oc1ccccc1 | inactive: 1.99 |

Pulled by structure from the entries so far (3):

| Compound | ATP level |
| --- | --- |
| O=C(CCc1ccc(O)cc1)c1c(O)cc(O)cc1O[C@@H]1OC(CO)[C@@H](O)[C@@H](O)C1O (stereo partly drawn) | inactive: 1.96 |
| CO[C@H]1C[C@H](O[C@@H]2/C(C)=C\C[C@@H]3C[C@@H](C[C@]4(C=C[C@H](C)[C@@H](C(C)C)O4)O3)OC(=O)[C@@H]3C=C(C)[C@@H](O)[C@H]4OC/C(=C/C=C\[C@@H]2C)[C@]43O)O[C@@H](C)[C@H]1O[C@H]1C[C@@H](OC)[C@H](NC(C)=O)[C@H](C)O1 | inactive: -9.6 |
| O=C(CO)C(O)C(O)C(O)CO (stereo not drawn) | inactive: -1.67 |

(continued)

| Compound | ATP level |
| --- | --- |
| O=c1c(O)c(-c2ccc(O)cc2)oc2ccccc12 | inactive: 0.617 |
| CC(=O)Oc1cc2c(c(C)c1OC(C)=O)CC=C1[C@@]2(C)CC[C@@]2(C)C3C[C@](C)(C(=O)O)CC[C@]3(C)CC[C@]12C (stereo partly drawn) | inactive: -11.5 |
| CC(=O)Oc1ccccc1C(=O)Oc1ccccc1C(=O)O | inactive: -0.648 |
| COc1cc2c(cc1-c1coc3c4c(ccc3c1=O)OC(C)(C)C=C4)OCO2 | inactive: 1.27 |
| CCOC(=O)c1c(C)cc(O)c(C=O)c1O | inactive: -1.58 |
| CCN(CC)CCOC(=O)c1ccc(N)cc1 | inactive: -1.23 |
| CC[C@H](C)C(=O)O[C@H]1C[C@@H](C)C=C2C=C[C@H](C)[C@H](CC[C@@H]3C[C@@H](O)CC(=O)O3)[C@H]21 | inactive: 2.66 |
| Cc1c(C)c2c(c(C)c1O)CCC(C)(C(=O)O)O2 (stereo not drawn) | inactive: -0.853 |
| COc1ccc(-c2coc3c4c(c(CC=C(C)C)c(O)c3c2=O)OC(C)(C)C=C4)cc1 | inactive: 2.86 |
| CC(C)C[C@H](N)C(=O)N[C@@H](C)C(=O)O (H-Leu-Ala-OH) | inactive: 1.49 |
| Oc1cccc2[nH]ccc12 | active: 3.13 |
| O=C1CCC[C@@H]2[C@H]3CCC[N+]4([O-])CCC[C@@H](CN12)[C@@H]34 (stereo partly drawn) | inactive: -1.46 |
| CC(=O)N[C@@H](CS)C(=O)O | inactive: 0.752 |
| CC(=O)O[C@H]1C[C@@]2(C)[C@@H](C[C@@H](O)[C@H]3[C@@]4(C)CC[C@@H](O)[C@@H](C)[C@@H]4CC[C@@]32C)/C1=C(\CCC=C(C)C)C(=O)O | inactive: 2.27 |
| COc1cccc(-c2cc(=O)c3cc(OC)ccc3o2)c1 | inactive: 1.41 |
| COc1cc(C2Oc3cc([C@H]4Oc5cc(O)cc(O)c5C(=O)[C@@H]4O)ccc3OC2CO)ccc1O (stereo partly drawn) | inactive: 0.166 |
| CC(C)CCCC(C)N (stereo not drawn) | inactive: -17 |
| O=c1cc(-c2ccccc2)oc2cc(O)c(O)c(O)c12 | inactive: -0.456 |
| CC(C)[C@@H]1CC[C@@H](C)C[C@H]1O | inactive: -0.37 |
| NS(=O)(=O)c1cc2c(cc1Cl)N=C(CSCc1ccccc1)NS2(=O)=O | inactive: 0.505 |
| CC(=O)OC/C=C(C)/C=C/C=C(C)/C=C/C1=C(C)CCCC1(C)C | inactive: -1.63 |
